Results are given in words; binding and its absence hold for the method and conditions named. In cells and extracts the contact can be indirect. Some entries that bind do so weakly or less than the wild type. Where a sequence is shown, tags or fusion partners need not be part of it.
Biological target: T1, triggering receptor expressed on myeloid cells-1 (TREM-1) on RAW264.7 macrophages (mouse (endogenous in RAW264.7)) (UniProt Q9JKE2)
T1 sequence: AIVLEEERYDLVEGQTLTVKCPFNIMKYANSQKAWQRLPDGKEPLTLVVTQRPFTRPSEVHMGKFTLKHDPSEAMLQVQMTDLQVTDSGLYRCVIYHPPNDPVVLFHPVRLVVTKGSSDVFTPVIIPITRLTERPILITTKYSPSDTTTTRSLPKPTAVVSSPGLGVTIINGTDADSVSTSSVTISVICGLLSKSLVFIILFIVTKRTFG
Assay: FRET or BRET

- binding: binds
B1: recombinant murine cold-inducible RNA-binding protein, His-tagged (rmCIRP-his) (natural protein, mouse, UniProt P60824 1-172, looked up)
chain: MASDEGKLFVGGLSFDTNEQALEQVFSKYGQISEVVVVKDRETQRSRGFGFVTFENIDDAKDAMMAMNGKSVDGRQIRVDQAGKSSDNRSRGYRGGSAGGRGFFRGGRSRGRGFSRGGGDRGYGGGRFESRSGGYGGSRDYYASRSQGGSYGYRSSGGSYRDSYDSYATHNE
